For at least one entry, the source does not settle the construct or the ends of the probe. At least one verdict was read from the data and is not stated in words by the source.
Tests used:
[1] = tested on: 30S ribosomal subunit + initiation factor IF1 + initiation factor IF3 + initiation factor IF2; assay: cryo-EM; conditions: GE81112A, with fMet-tRNAfMet, IF2-containing class; cryo-EM of 30S with IF1, IF2, IF3, fMet-tRNAfMet, MF-mRNA and antibiotic; 30S reactivated at 21 mM MgCl2, 37 C, 30 min; complex buffer; native protein
[2] = tested on: 30S ribosomal subunit + initiation factor IF1 + initiation factor IF3; assay: cryo-EM; conditions: cryo-EM of 30S with IF1, IF2, IF3, fMet-tRNAfMet, MF-mRNA and antibiotic, 30S reactivated at 21 mM MgCl2, 37 C, 30 min, complex buffer, native protein

Measured: binding result

AAACAAUUGGAGGAAUAAGGUAUGUUUGGCGGAAAACGAG [MF-mRNA (Met-Phe-mRNA)]
binds: [1] | [2]; GE81112A, class without tRNA | [2]; GE81112A, with fMet-tRNAfMet, start codon recognised | [2]; edeine, class without tRNA, SD-antiSD helix density only, no mRNA density in A, P, E sites | [2]; kasugamycin, class without tRNA
